Experimental data from the supplement of paper PMC10849652.
The list shows a part of the results.

Amino acid sequences for entries named in this document (tags omitted). A change or cut given only in a name is not applied to a line headed by its entry.
UniProt Q99816: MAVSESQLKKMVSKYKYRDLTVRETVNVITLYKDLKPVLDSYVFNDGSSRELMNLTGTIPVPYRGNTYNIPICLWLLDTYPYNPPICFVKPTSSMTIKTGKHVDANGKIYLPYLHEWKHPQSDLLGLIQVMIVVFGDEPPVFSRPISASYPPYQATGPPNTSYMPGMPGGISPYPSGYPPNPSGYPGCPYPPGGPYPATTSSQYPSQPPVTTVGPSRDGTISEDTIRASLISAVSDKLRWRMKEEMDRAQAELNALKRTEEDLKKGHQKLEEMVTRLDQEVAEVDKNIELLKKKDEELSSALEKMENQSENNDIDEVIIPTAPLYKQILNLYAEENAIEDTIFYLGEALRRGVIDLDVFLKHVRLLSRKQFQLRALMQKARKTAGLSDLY
UniProt P40222: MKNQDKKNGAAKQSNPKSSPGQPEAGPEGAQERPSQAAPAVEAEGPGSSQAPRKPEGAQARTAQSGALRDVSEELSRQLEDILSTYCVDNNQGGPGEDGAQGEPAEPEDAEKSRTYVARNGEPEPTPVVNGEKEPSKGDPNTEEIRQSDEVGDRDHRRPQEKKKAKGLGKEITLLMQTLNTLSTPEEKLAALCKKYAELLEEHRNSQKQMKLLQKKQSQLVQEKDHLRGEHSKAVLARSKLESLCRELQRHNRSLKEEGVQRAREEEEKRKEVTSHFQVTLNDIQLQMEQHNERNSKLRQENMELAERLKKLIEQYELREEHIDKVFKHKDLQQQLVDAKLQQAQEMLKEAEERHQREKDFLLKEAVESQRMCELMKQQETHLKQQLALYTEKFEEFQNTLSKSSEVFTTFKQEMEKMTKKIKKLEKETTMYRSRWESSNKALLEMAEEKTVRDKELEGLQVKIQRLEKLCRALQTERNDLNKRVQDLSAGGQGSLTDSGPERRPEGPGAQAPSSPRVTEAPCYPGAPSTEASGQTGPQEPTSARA
UniProt Q969T4: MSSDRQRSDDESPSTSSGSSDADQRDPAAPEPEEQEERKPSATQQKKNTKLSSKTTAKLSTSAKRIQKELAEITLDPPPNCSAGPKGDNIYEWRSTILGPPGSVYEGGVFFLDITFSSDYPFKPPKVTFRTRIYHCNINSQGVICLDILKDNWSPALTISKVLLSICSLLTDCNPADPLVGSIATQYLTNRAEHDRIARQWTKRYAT
UniProt P68363, whole entry, looked up: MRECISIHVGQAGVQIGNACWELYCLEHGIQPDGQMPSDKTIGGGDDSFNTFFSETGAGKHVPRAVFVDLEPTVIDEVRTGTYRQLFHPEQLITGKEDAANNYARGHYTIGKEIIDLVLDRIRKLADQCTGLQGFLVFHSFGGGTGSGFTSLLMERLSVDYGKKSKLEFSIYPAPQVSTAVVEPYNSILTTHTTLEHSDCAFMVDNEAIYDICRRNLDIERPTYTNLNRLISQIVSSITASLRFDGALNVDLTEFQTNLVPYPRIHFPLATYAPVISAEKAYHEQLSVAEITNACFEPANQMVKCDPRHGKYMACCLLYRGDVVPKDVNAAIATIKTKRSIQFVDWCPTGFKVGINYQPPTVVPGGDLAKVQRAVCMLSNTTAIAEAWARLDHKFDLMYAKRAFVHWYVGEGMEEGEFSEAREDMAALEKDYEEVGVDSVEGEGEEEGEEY
UniProt P63146, whole entry, looked up: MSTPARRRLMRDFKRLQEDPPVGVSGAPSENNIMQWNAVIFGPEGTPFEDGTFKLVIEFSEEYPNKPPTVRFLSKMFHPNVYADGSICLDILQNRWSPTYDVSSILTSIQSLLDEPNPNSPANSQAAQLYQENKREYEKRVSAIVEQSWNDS
UniProt Q8N5M4: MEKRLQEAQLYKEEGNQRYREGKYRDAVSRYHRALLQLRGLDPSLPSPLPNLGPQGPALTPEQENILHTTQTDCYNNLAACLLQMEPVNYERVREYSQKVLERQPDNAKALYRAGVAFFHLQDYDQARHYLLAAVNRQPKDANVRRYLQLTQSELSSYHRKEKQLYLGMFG
UniProt Q16763: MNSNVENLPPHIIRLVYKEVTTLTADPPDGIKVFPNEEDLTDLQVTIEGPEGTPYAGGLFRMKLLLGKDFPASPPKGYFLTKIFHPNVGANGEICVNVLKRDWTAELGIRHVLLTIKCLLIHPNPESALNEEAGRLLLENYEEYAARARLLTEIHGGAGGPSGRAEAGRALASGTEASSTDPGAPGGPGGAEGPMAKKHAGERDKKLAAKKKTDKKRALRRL
UniProt Q13454: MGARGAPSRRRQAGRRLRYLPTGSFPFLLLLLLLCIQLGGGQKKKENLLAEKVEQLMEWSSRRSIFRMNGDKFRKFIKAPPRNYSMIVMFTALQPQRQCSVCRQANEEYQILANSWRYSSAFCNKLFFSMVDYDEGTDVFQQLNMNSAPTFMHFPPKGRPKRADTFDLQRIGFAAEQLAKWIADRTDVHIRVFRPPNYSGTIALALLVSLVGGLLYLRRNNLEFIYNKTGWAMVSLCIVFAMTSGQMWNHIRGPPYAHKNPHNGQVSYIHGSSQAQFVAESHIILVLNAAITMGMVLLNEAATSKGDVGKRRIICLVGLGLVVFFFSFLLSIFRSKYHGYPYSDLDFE
UniProt Q8NG68: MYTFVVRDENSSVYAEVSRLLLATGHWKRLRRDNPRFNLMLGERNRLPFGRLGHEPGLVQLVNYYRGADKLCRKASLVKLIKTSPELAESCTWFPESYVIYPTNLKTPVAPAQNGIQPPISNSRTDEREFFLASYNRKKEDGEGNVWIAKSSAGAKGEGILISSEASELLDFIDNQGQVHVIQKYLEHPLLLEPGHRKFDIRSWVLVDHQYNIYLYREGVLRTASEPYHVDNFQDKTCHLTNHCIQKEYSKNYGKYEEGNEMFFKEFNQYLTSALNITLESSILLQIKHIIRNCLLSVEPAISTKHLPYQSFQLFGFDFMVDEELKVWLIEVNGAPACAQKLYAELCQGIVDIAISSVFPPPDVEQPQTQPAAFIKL
UniProt Q9NZ09: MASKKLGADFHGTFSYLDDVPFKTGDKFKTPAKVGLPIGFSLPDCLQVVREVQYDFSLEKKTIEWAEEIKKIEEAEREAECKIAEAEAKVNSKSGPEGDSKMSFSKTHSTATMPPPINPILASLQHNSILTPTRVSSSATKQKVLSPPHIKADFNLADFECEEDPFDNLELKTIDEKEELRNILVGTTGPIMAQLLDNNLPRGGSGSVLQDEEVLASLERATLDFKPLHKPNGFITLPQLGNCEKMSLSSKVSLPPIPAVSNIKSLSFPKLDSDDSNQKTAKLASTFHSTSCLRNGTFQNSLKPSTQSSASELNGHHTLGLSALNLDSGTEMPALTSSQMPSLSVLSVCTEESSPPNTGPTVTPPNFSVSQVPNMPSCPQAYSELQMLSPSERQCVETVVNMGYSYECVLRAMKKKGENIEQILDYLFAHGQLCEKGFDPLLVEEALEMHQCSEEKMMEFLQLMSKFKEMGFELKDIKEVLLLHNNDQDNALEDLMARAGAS
UniProt Q9Y385: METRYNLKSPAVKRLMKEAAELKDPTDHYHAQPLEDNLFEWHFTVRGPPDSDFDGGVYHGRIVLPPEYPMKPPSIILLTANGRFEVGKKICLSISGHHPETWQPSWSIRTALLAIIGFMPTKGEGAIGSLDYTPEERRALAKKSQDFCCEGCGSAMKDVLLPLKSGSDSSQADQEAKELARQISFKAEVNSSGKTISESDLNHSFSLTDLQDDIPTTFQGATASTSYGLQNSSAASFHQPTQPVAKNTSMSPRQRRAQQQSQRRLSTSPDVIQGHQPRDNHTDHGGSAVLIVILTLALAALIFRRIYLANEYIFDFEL
UniProt Q969M7: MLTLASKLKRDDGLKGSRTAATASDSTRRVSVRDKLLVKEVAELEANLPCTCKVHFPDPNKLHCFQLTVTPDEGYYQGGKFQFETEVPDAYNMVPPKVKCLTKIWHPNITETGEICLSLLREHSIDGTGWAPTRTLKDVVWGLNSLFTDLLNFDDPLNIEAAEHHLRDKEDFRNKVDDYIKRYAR
UniProt Q5JXB2: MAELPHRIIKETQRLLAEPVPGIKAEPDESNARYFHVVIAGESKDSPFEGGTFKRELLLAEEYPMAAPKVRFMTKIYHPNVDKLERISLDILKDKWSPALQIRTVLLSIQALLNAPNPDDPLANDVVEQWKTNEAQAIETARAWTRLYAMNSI
UniProt P61086: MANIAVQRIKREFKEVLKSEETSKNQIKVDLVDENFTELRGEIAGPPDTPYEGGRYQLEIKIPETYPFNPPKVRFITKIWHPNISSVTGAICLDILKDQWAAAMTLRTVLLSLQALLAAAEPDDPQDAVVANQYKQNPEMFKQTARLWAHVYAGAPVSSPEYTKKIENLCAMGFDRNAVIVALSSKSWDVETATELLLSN
UniProt P63279, whole entry, looked up: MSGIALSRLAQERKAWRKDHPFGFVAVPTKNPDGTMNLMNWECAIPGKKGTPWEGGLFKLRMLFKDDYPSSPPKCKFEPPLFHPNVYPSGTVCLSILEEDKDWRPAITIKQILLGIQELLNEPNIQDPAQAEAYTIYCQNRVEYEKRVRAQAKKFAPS
UniProt Q2NL82: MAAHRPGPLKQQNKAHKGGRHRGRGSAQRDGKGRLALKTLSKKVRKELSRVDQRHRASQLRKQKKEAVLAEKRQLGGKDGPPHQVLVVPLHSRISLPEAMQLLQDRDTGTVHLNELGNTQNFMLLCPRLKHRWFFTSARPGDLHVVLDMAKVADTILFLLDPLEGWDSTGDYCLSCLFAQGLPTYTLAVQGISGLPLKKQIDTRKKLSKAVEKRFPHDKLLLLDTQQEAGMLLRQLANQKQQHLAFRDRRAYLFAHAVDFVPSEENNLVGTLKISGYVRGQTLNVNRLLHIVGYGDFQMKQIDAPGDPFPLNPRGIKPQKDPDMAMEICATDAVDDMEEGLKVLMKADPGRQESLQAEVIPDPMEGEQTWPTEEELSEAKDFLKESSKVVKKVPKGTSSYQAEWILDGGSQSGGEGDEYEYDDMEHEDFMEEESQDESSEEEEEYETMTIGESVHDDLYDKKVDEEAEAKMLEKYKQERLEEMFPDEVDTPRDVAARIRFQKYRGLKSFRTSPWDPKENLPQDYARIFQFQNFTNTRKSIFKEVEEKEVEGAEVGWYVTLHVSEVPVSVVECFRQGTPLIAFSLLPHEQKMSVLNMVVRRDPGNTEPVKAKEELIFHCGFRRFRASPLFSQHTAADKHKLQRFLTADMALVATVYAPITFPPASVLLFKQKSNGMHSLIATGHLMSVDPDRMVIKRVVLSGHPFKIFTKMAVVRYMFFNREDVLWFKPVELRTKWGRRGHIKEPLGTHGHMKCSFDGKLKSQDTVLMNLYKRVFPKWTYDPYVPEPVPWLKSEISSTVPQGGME
UniProt P22314: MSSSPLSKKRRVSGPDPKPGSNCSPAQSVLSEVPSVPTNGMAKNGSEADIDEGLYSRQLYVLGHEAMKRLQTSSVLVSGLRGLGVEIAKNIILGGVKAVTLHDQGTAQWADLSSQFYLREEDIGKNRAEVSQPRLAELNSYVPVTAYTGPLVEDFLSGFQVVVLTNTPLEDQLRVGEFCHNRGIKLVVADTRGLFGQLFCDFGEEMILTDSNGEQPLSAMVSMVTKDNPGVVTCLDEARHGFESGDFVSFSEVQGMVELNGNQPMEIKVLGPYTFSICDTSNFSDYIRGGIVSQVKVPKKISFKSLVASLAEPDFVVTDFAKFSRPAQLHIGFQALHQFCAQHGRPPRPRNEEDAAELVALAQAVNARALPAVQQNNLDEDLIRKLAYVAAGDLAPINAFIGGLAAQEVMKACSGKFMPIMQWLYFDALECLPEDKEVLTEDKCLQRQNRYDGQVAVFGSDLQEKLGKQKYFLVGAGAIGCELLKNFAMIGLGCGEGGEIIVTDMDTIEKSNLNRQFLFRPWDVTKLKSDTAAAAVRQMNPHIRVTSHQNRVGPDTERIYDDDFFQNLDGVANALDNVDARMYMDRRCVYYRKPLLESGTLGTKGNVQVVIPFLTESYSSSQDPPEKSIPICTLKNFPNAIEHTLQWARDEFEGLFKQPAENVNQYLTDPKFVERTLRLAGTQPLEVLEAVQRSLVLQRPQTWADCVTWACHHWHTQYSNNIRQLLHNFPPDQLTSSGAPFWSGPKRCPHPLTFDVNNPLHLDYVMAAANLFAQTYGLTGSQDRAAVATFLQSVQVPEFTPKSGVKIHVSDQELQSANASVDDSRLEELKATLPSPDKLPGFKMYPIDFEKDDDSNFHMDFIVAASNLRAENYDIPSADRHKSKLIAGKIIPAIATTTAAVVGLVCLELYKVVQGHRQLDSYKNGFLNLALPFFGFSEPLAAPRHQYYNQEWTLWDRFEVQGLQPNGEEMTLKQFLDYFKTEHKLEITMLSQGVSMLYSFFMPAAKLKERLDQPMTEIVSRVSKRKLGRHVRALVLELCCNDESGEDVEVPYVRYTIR
UniProt Q9Y5U2: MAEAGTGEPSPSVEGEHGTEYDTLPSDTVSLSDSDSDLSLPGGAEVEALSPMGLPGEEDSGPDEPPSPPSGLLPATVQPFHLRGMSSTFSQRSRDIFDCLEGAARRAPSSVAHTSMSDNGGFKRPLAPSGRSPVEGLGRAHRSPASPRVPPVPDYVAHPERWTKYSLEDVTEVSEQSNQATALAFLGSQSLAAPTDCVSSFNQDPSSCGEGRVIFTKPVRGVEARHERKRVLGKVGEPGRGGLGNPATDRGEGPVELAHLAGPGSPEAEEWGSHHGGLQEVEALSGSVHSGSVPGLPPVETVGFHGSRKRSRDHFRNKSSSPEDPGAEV

Key:
Experiment in all cases: log2 fold change, soluble protein after heating vs DMSO (PISA); higher = thermal stabilisation; K562 cells, 10 uM, 30 min; active = over 0.2 and 3.5 SD of the protein, either way, in both replicates (recomputed)
[1] = compound: COC1=CC=C(C=C1)CN2C=CC3=C2C=C(C=C3)C(=O)NO
Summary of the method: (§1)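 Soluble protein was defined as the supernatant after 21,000xg for 90 min. It came from K562 cells at 2×10^6 cells/mL given 10 μM compound for 30 min, heated in aliquots for 3 min across 48°C-58°C, pooled, and extracted in PBS with 0.5% NP-40 at 4°C, and was quantified by TMTpro 16plex LC-MS/MS with equalised channel sums. Thermal stability against control samples, from duplicates, is reported as log2 fold change.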

filanesib = compound: CON(C)C(=O)N1N=C(c2cc(F)ccc2F)S[C@@]1(CCCN)c1ccccc1 [filanesib]
Summary of the method: as §1

zotarolimus = compound: CO[C@H]1C[C@@H]2CC[C@@H](C)[C@@](O)(O2)C(=O)C(=O)N2CCCC[C@H]2C(=O)O[C@H]([C@H](C)C[C@@H]2CC[C@H](n3cnnn3)[C@H](OC)C2)CC(=O)[C@H](C)/C=C(\C)[C@@H](O)[C@@H](OC)C(=O)[C@H](C)C[C@H](C)/C=C/C=C/C=C/1C [zotarolimus]
Summary of the method: as §1

idasanutlin = compound: COc1cc(C(=O)O)ccc1NC(=O)[C@@H]1N[C@@H](CC(C)(C)C)[C@](C#N)(c2ccc(Cl)cc2F)[C@H]1c1cccc(Cl)c1F [idasanutlin]
Summary of the method: as §1

alisertib = compound: COc1cc(Nc2ncc3c(n2)-c2ccc(Cl)cc2C(c2c(F)cccc2OC)=NC3)ccc1C(=O)O [alisertib]
Summary of the method: as §1

[2] = compound: COc1cc2nc(-c3cc(F)ccc3O)nc(N[C@@H]3CNC[C@H]3C(C)(C)O)c2cc1OC
Summary of the method: as §1

gefitinib = compound: COc1cc2ncnc(Nc3ccc(F)c(Cl)c3)c2cc1OCCCN1CCOCC1 [gefitinib]
Summary of the method: as §1

[3] = compound: COc1cccc2cc(-c3nc([C@H]4CC[C@H](C(=O)O)CC4)n4ncnc(N)c34)[nH]c12
Summary of the method: as §1

lapatinib = compound: CS(=O)(=O)CCNCc1ccc(-c2ccc3ncnc(Nc4ccc(OCc5cccc(F)c5)c(Cl)c4)c3c2)o1 [lapatinib]
Summary of the method: as §1

pictilisib = compound: CS(=O)(=O)N1CCN(Cc2cc3nc(-c4cccc5[nH]ncc45)nc(N4CCOCC4)c3s2)CC1 [pictilisib]
Summary of the method: as §1

Measured: log2 fold change

TUBB4A (UniProt M0QYM7)
inactive: [1] -0.276 | filanesib -0.011 | zotarolimus -0.464 | idasanutlin 0.057 | alisertib 0.171 | [2] 0.233 | gefitinib 0.046 | [3] 0.311 | lapatinib -0.358 | pictilisib 0.117

TSG101 (UniProt Q99816)
inactive: [1] 0 | filanesib -0.07 | zotarolimus 0.029 | idasanutlin -0.031 | alisertib -0.049 | [2] 0.007 | gefitinib 0.011 | [3] 0.016 | lapatinib -0.013 | pictilisib 0.025

TXLNA (UniProt P40222)
inactive: [1] 0.02 | filanesib -0.034 | zotarolimus 0.008 | idasanutlin -0.031 | alisertib -0.041 | [2] 0.024 | gefitinib 0.012 | [3] 0.024 | lapatinib -0.005 | pictilisib 0.045

UBE2E3 (UniProt Q969T4)
inactive: [1] -0.077 | filanesib -0.046 | zotarolimus -0.013 | idasanutlin -0.075 | alisertib -0.045 | [2] 0.108 | gefitinib -0.076 | [3] 0.022 | lapatinib -0.021 | pictilisib 0.089

TUBA1B (UniProt P68363)
inactive: [1] 0.012 | filanesib -0.118 | zotarolimus -0.056 | idasanutlin -0.052 | alisertib -0.033 | [2] -0.01 | gefitinib -0.005 | [3] 0.07 | lapatinib 0.008 | pictilisib -0.014

TUBG1 (UniProt P23258)
inactive: [1] -0.017 | filanesib 0.045 | zotarolimus -0.013 | idasanutlin -0.006 | alisertib -0.042 | [2] 0 | gefitinib 0.049 | [3] 0.029 | lapatinib 0.017 | pictilisib -0.008

UBE2B (UniProt P63146)
inactive: [1] -0.087 | filanesib -0.113 | zotarolimus 0.038 | idasanutlin -0.059 | alisertib -0.074 | [2] 0.057 | gefitinib -0.034 | [3] 0.034 | lapatinib 0 | pictilisib -0.055

TTC9C (UniProt Q8N5M4)
inactive: [1] 0.165 | filanesib -0.041 | zotarolimus 0.28 | idasanutlin -0.057 | alisertib 0.024 | [2] 0.018 | gefitinib 0.03 | [3] 0.038 | lapatinib 0.002 | pictilisib 0.053

UBE2H (UniProt P62256)
inactive: [1] -0.017 | filanesib 0.049 | zotarolimus -0.025 | idasanutlin 0.015 | alisertib -0.061 | [2] 0.065 | gefitinib 0.051 | [3] -0.048 | lapatinib 0.004 | pictilisib 0.082

UBE2S (UniProt Q16763)
inactive: [1] 0.003 | filanesib 0.01 | zotarolimus 0.045 | idasanutlin -0.05 | alisertib 0.015 | [2] 0.053 | gefitinib -0.009 | [3] 0.001 | lapatinib -0.035 | pictilisib 0.058

TTF2 (UniProt Q9UNY4)
inactive: [1] -0.023 | filanesib 0.2 | zotarolimus -0.069 | idasanutlin -0.037 | alisertib -0.309 | [2] 0.089 | gefitinib -0.008 | [3] -0.068 | lapatinib -0.077 | pictilisib 0.116

TUSC3 isoform 2 (UniProt Q13454)
inactive: [1] -0.026 | filanesib 0.05 | zotarolimus -0.011 | idasanutlin -0.013 | alisertib -0.156 | [2] -0.003 | gefitinib -0.003 | [3] 0.108 | lapatinib 0.023 | pictilisib 0.066

UBAP2 (UniProt Q5T6F2)
inactive: [1] -0.007 | filanesib -0.027 | zotarolimus -0.043 | idasanutlin -0.003 | alisertib -0.051 | [2] 0.021 | gefitinib -0.004 | [3] 0.049 | lapatinib -0.02 | pictilisib -0.038

TUBA1C (UniProt Q9BQE3)
inactive: [1] 0.042 | filanesib -0.109 | zotarolimus 0.033 | idasanutlin -0.029 | alisertib -0.127 | [2] 0.025 | gefitinib 0.014 | [3] 0.032 | lapatinib -0.026 | pictilisib 0.018

TYW3 (UniProt Q6IPR3)
inactive: [1] 0.007 | filanesib 0.059 | zotarolimus 0 | idasanutlin 0.045 | alisertib 0.033 | [2] -0.042 | gefitinib -0.044 | [3] 0.019 | lapatinib 0.051 | pictilisib -0.044

5 neighbouring records from above:
TTC9C (UniProt Q8N5M4)
inactive: [1] 0.165 | filanesib -0.041 | zotarolimus 0.28 | idasanutlin -0.057 | alisertib 0.024 | [2] 0.018 | gefitinib 0.03 | [3] 0.038 | lapatinib 0.002 | pictilisib 0.053

UBE2H (UniProt P62256)
inactive: [1] -0.017 | filanesib 0.049 | zotarolimus -0.025 | idasanutlin 0.015 | alisertib -0.061 | [2] 0.065 | gefitinib 0.051 | [3] -0.048 | lapatinib 0.004 | pictilisib 0.082

UBE2S (UniProt Q16763)
inactive: [1] 0.003 | filanesib 0.01 | zotarolimus 0.045 | idasanutlin -0.05 | alisertib 0.015 | [2] 0.053 | gefitinib -0.009 | [3] 0.001 | lapatinib -0.035 | pictilisib 0.058

TTF2 (UniProt Q9UNY4)
inactive: [1] -0.023 | filanesib 0.2 | zotarolimus -0.069 | idasanutlin -0.037 | alisertib -0.309 | [2] 0.089 | gefitinib -0.008 | [3] -0.068 | lapatinib -0.077 | pictilisib 0.116

TUSC3 isoform 2 (UniProt Q13454)
inactive: [1] -0.026 | filanesib 0.05 | zotarolimus -0.011 | idasanutlin -0.013 | alisertib -0.156 | [2] -0.003 | gefitinib -0.003 | [3] 0.108 | lapatinib 0.023 | pictilisib 0.066

Next part.

TTL (UniProt Q8NG68)
inactive: [1] 0.018 | filanesib -0.167 | zotarolimus -0.018 | idasanutlin -0.016 | alisertib 0.044 | [2] 0.006 | gefitinib -0.028 | [3] 0.182 | lapatinib 0.047 | pictilisib 0.032

UBAP1 isoform 4 (UniProt Q9NZ09)
inactive: [1] -0.018 | filanesib 0.078 | zotarolimus 0.045 | idasanutlin -0.014 | alisertib -0.034 | [2] -0.017 | gefitinib 0.088 | [3] -0.018 | lapatinib 0.23 | pictilisib -0.005

UBE2J1 (UniProt Q9Y385)
inactive: [1] -0.209 | filanesib 0.119 | zotarolimus 0.046 | idasanutlin -0.12 | alisertib -0.259 | [2] 0.232 | gefitinib -0.035 | [3] 0.241 | lapatinib -0.064 | pictilisib -0.081

TXNL4B (UniProt Q9NX01)
inactive: [1] 0.011 | filanesib -0.034 | zotarolimus -0.008 | idasanutlin -0.147 | alisertib 0.097 | [2] 0.106 | gefitinib 0.042 | [3] -0.064 | lapatinib -0.003 | pictilisib -0.003

TTC38 (UniProt Q5R3I4)
inactive: [1] -0.067 | filanesib -0.023 | zotarolimus 0.034 | idasanutlin -0.093 | alisertib 0.065 | [2] 0.081 | gefitinib 0.013 | [3] -0.003 | lapatinib -0.054 | pictilisib -0.041

UBE2F isoform 2 (UniProt Q969M7)
inactive: [1] -0.068 | filanesib 0.043 | zotarolimus -0.074 | idasanutlin 0 | alisertib 0.015 | [2] 0.059 | gefitinib -0.074 | [3] -0.029 | lapatinib 0.036 | pictilisib 0.089

UBE2NL (UniProt Q5JXB2)
inactive: [1] -0.021 | filanesib -0.108 | zotarolimus 0.063 | idasanutlin -0.004 | alisertib -0.102 | [2] -0.073 | gefitinib 0.009 | [3] 0.005 | lapatinib -0.051 | pictilisib -0.006

UBE2K (UniProt P61086)
inactive: [1] 0.214 | filanesib -0.028 | zotarolimus 0.002 | idasanutlin -0.052 | alisertib -0.032 | [2] -0.084 | gefitinib 0.028 | [3] -0.031 | lapatinib 0.066 | pictilisib 0.043

UBE2I (UniProt P63279)
inactive: [1] -0.027 | filanesib -0.099 | zotarolimus 0.039 | idasanutlin -0.062 | alisertib -0.024 | [2] -0.003 | gefitinib 0 | [3] 0.023 | lapatinib -0.046 | pictilisib 0.035

TWSG1 (UniProt Q9GZX9)
inactive: [1] -0.003 | filanesib -0.002 | zotarolimus 0.002 | idasanutlin -0.003 | alisertib 0.056 | [2] -0.01 | gefitinib 0.004 | [3] -0.019 | lapatinib -0.019 | pictilisib -0.021

TSR1 (UniProt Q2NL82)
inactive: [1] 0.052 | filanesib 0.153 | zotarolimus 0.067 | idasanutlin 0.076 | alisertib -0.097 | [2] 0.271 | gefitinib -0.051 | [3] -0.213 | lapatinib 0.062 | pictilisib -0.008

UBA1 (UniProt P22314)
inactive: [1] 0.029 | filanesib -0.077 | zotarolimus -0.021 | idasanutlin -0.014 | alisertib 0.05 | [2] 0.047 | gefitinib 0.05 | [3] -0.053 | lapatinib -0.06 | pictilisib -0.019

TSSC4 (UniProt Q9Y5U2)
inactive: [1] -0.006 | filanesib 0.162 | zotarolimus -0.002 | idasanutlin 0.066 | alisertib 0.039 | [2] 0.015 | gefitinib 0.007 | [3] 0.087 | lapatinib 0.055 | pictilisib -0.114
